According to PubChem BioAssay AID2685 (National Center for Advancing Translational Sciences (NCATS), 2010):
Out of some 320,000 compounds screened, about 2,100 (0.66%) were called active. Inconclusive means that the source gave no clear call. Such entries were picked first, then a sample of the others. The call rests on the fitted dose curve; in most records, active means well fitted inhibition curve with a large enough effect in the signal ratio, with a control signal flat (not every such curve was filed as active); inconclusive means small, poorly fitted or top-dose-only effect, or effect the other way, or a change in a side signal; inactive means flat fitted curve, though single readings scatter; the % refers to the signal ratio. Where the call is inconclusive, the potency comes from a doubtful curve fit.

Experiment: qHTS Assay for Lipid Storage Modulators in Drosophila S3 Cells
Settings: BODIPY lipid droplet fluorescence, 18-24 h, cells fed with added oleic acid; lipid storage change, negative = inhibition: at 46.1 µM (top of the series) unless noted
How it was run: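 Laser-scanning cytometry quantifies lipid droplet accumulation (500–530 nm total intensity; droplet/cell object ratio) in oleic acid-fed (400 uM added) Drosophila S3 cells treated with a concentration series. 20 uM Triacsin C defined 100% inhibition.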
On the % scale 0 is the no-effect control and ±100 the full control effect; potency means the concentration at half of the fitted maximal effect.

**Q.** Which lipid storage change, negative = inhibition does the source give for CC1C(=O)Nc2ccccc2N1C(=O)c1ccccc1 (stereo not drawn) here?
**A.** The lipid storage change, negative = inhibition was inconclusive: 3.99%.

**Q.** Which lipid storage change, negative = inhibition does the source give for Cc1oc(-c2cccc(Cl)c2)nc1CS(=O)(=O)CC(=O)NC1CCCC1 here?
**A.** The lipid storage change, negative = inhibition was inconclusive: -34.8%.

**Q.** For COc1ccc(NC(=O)/C(C#N)=C/c2ccc(OCCN3CCOCC3)c(OC)c2)c(OC)c1, which Potency is on record?
**A.** The Potency was inconclusive: 0.0731 µM [activator, partial curve, poor fit].

**Q.** With CO/N=C(/CS(=O)Cc1ccccc1Cl)c1ccc(Cl)cc1Cl (stereo not drawn) as the molecule, how does the lipid storage change, negative = inhibition read?
**A.** Its lipid storage change, negative = inhibition is inconclusive: -17.1%.

**Q.** Which lipid storage change, negative = inhibition does the source give for COc1ccc(NC(=O)CCNS(=O)(=O)c2ccc3c(c2)c(=O)n(C)c(=O)n3C)cc1 here?
**A.** Its lipid storage change, negative = inhibition is inconclusive: 0.28%.

**Q.** For CCOc1cc(/C=C(\C#N)C(=O)NCC2CCCO2)ccc1OCC(N)=O (stereo not drawn), which lipid storage change, negative = inhibition is on record?
**A.** The lipid storage change, negative = inhibition was inconclusive: -2.72%.

**Q.** For CCCn1c(N)c(N(CCOC)C(=O)c2cc3c(s2)CCC(CC)C3)c(=O)[nH]c1=O (stereo not drawn), which lipid storage change, negative = inhibition is on record?
**A.** Its lipid storage change, negative = inhibition is inconclusive: -6.65%.

**Q.** For CCn1c2ccccc2c2nnc(SCCCn3c(=O)[nH]c4ccccc43)nc21, which Potency is on record?
**A.** Its Potency is inconclusive: 0.58 µM [activator, partial curve, poor fit].

**Q.** With C/C(N)=C(/C#N)C(=O)CN1C(=O)NC(Cc2c[nH]c3ccccc23)C1=O (stereo not drawn) as the molecule, how does the lipid storage change, negative = inhibition read?
**A.** The lipid storage change, negative = inhibition was inconclusive: 5.26%.

**Q.** With O=C(O)c1ccc(-c2nc(-c3ccccc3)c(-c3ccccc3)[nH]2)cc1 as the molecule, how does the Potency read?
**A.** Its Potency is inconclusive: 20.6 µM [activator, single point].

**Q.** With O=C(OCC(=O)N1CCOCC1)c1ccccc1OCc1ccccc1 as the molecule, how does the lipid storage change, negative = inhibition read?
**A.** The lipid storage change, negative = inhibition was inconclusive: 16.8%.

**Q.** Which lipid storage change, negative = inhibition does the source give for CCn1c(SCC(=O)Nc2ccc3c(c2)OCCO3)nnc1-c1cccnc1 here?
**A.** Its lipid storage change, negative = inhibition is inconclusive: -19.4%.

**Q.** Which Potency does the source give for CCOc1ccccc1NC(=O)NC1(C(=O)NCC2CCCO2)CCCCC1 (stereo not drawn) here?
**A.** The Potency was inconclusive: 4.61 µM [activator, partial curve, poor fit].

**Q.** Which lipid storage change, negative = inhibition does the source give for Cc1ccc(OCC(=O)N/N=C/c2cn(C)c3ccccc23)cc1 here?
**A.** Its lipid storage change, negative = inhibition is inconclusive: 18.7%.

**Q.** Which lipid storage change, negative = inhibition does the source give for CCn1c(CC(=O)Nc2ccccc2Cl)nnc1SCC(=O)NC1CCCC1 here?
**A.** Its lipid storage change, negative = inhibition is inconclusive: 7.8%.

**Q.** Which Potency does the source give for Cc1ccc(C(=O)/C=C/NNC(=O)c2ccccc2O)cc1 here?
**A.** The Potency was inconclusive: 7.31 µM [activator, partial curve, poor fit].

**Q.** For CCN=C1SC(C(N)=O)CC(=O)N1CC (stereo not drawn), which lipid storage change, negative = inhibition is on record?
**A.** Its lipid storage change, negative = inhibition is inconclusive: -9.72%.

**Q.** For O=C(Nc1nnc(S(=O)(=O)N2CCCCC2)s1)c1ccccc1Br, which lipid storage change, negative = inhibition is on record?
**A.** Its lipid storage change, negative = inhibition is inconclusive: 49%.

**Q.** For CCn1cc(C2=NOC(C(=O)Nc3cc(C)nn3-c3ccccc3)C2)c(C)n1 (stereo not drawn), which Potency is on record?
**A.** The Potency was inconclusive: 0.411 µM [rising, full curve, poor fit].

**Q.** Which Potency does the source give for C#Cc1ccc(CN2CCC(C(=O)Nc3ccc(Oc4ccccc4)nc3)CC2)cc1 here?
**A.** Its Potency is inconclusive: 29.1 µM [falling, single point].

**Q.** With Cc1ccc(NC(=O)[C@@H]2CCCN2C(=O)[C@@H]2Cc3ccccc3CN2)c(C)c1 as the molecule, how does the Potency read?
**A.** The Potency was inconclusive: 6.51 µM [activator, partial curve].

**Q.** Which Potency does the source give for C/C(N)=C(/C#N)C(=O)COC(=O)c1cc(-c2ccc(C)cc2)nc2ccccc12 here?
**A.** Its Potency is inconclusive: 16.4 µM [activator, partial curve].

**Q.** For CN(C(=O)CSc1nc(-c2ccc(F)cc2)cs1)C1CCS(=O)(=O)C1 (stereo not drawn), which lipid storage change, negative = inhibition is on record?
**A.** The lipid storage change, negative = inhibition was inconclusive: 6.94% [cytotoxic].

**Q.** Which Potency does the source give for COc1ccc(NC(=O)CN(C)C(=O)COc2ccccc2Cc2ccccc2)cc1 here?
**A.** Its Potency is inconclusive: 0.259 µM [activator, full curve, poor fit].

**Q.** Which Potency does the source give for COc1ccc(C2C(C(C)=O)=C(C)Nc3ncnn32)cc1OC (stereo not drawn) here?
**A.** The Potency was inconclusive: 29.1 µM [falling, single point].

**Q.** Which lipid storage change, negative = inhibition does the source give for Cc1ccc(-c2cc(C(=O)N/N=C/C=C/c3ccco3)c3ccccc3n2)cc1C here?
**A.** The lipid storage change, negative = inhibition was inconclusive: 34.7%.

**Q.** For CCOc1ccc(CN(C)C(=O)CCl)cc1, which lipid storage change, negative = inhibition is on record?
**A.** The lipid storage change, negative = inhibition was inconclusive: -14.7%.

**Q.** With COCCn1c(C)cc(O)c(C(=O)Nc2cccc(Cl)c2)c1=O as the molecule, how does the lipid storage change, negative = inhibition read?
**A.** Its lipid storage change, negative = inhibition is inconclusive: -100%.

**Q.** Which lipid storage change, negative = inhibition does the source give for O=C1OC(c2ccccc2)=C/C1=C/N1CCOCC1 here?
**A.** Its lipid storage change, negative = inhibition is inconclusive: -5.86%.

**Q.** For Cc1ccc(S(=O)(=O)N2CCN(C(=O)COC(=O)CCOc3ccccc3C)CC2)cc1, which lipid storage change, negative = inhibition is on record?
**A.** Its lipid storage change, negative = inhibition is inconclusive: 20.3%.

**Q.** Which lipid storage change, negative = inhibition does the source give for CN(C)c1cccc(C(=O)NCc2ccccc2)c1 here?
**A.** Its lipid storage change, negative = inhibition is inconclusive: 38%.

**Q.** Which lipid storage change, negative = inhibition does the source give for COc1ccc(OCCN2CCN(C(=O)c3ccc(OC)c(OC)c3)CC2)cc1 here?
**A.** The lipid storage change, negative = inhibition was inconclusive: 95.4%.

**Q.** With CC(C)Oc1cccc(C(=O)C2CCCN(C(=O)c3cc(C4CC4)[nH]n3)C2)c1 (stereo not drawn) as the molecule, how does the lipid storage change, negative = inhibition read?
**A.** The lipid storage change, negative = inhibition was inconclusive: -79.8%.

**Q.** Which lipid storage change, negative = inhibition does the source give for Cc1cccc(NC(=O)Cc2ccc(F)cc2)c1 here?
**A.** The lipid storage change, negative = inhibition was inconclusive: 6.86%.

**Q.** With O=C(Nc1ccc([N+](=O)[O-])cc1)c1cncc(Br)c1 as the molecule, how does the lipid storage change, negative = inhibition read?
**A.** Its lipid storage change, negative = inhibition is inconclusive: -40%.

**Q.** With O=C(/C=C/c1ccccc1)NC(NC(=S)Nc1ccc(C(=O)O)cc1)C(Cl)(Cl)Cl (stereo not drawn) as the molecule, how does the lipid storage change, negative = inhibition read?
**A.** Its lipid storage change, negative = inhibition is inconclusive: 9.21%.

**Q.** Which lipid storage change, negative = inhibition does the source give for Cc1ccccc1/C=N\NC(=O)c1csnn1 here?
**A.** The lipid storage change, negative = inhibition was inconclusive: 39%.

**Q.** For N/C(=N\OC(=O)CCCc1ccccc1)c1ccccc1Cl, which Potency is on record?
**A.** Its Potency is inconclusive: 0.461 µM [falling, full curve, poor fit].

**Q.** For O=C(Nc1cccc(-c2cccc(Cl)c2)c1)C1CCN(CC2CCOC2)CC1 (stereo not drawn), which “lipid storage change, negative = inhibition” value is on record?
**A.** Its value is inactive: -4.19%.

**Q.** Which Potency does the source give for CCN1CCN(C(=S)c2ccc(OCC(=O)NCc3ccccc3)cc2)CC1 here?
**A.** The Potency was inconclusive: 29.1 µM [falling, single point].

**Q.** With C=C(C)COc1ccc2c(CC)cc(=O)oc2c1C as the molecule, how does the Potency read?
**A.** The Potency was inconclusive: 29.1 µM [rising, single point].

**Q.** Which Potency does the source give for C=CCc1ccccc1OCCSc1nc2ccc([N+](=O)[O-])cc2s1 here?
**A.** The Potency was inconclusive: 14.6 µM [activator, partial curve].

**Q.** For O=C(NC(=S)Nc1ccccc1O)c1cccnc1, which Potency is on record?
**A.** Its Potency is inconclusive: 3.66 µM [activator, partial curve].

**Q.** With COc1cc(C(=O)NCCc2ccccc2)ccc1OCC(=O)N1CCOCC1 as the molecule, how does the lipid storage change, negative = inhibition read?
**A.** Its lipid storage change, negative = inhibition is inconclusive: 26.5%.

**Q.** Which lipid storage change, negative = inhibition does the source give for CC(=O)c1ccc(Cc2ccc(C(C)=O)cc2)cc1 here?
**A.** Its lipid storage change, negative = inhibition is inconclusive: 22.2%.

**Q.** With Cc1cc(=O)[nH]c(SCC(=O)Nc2nc(-c3ccccc3)c(-c3ccccc3)o2)n1 as the molecule, how does the lipid storage change, negative = inhibition read?
**A.** Its lipid storage change, negative = inhibition is inconclusive: -74.6%.

**Q.** With O=C1CCC(C(=O)N2CCCC(C(=O)c3ccc4ccccc4c3)C2)=NN1 (stereo not drawn) as the molecule, how does the Potency read?
**A.** The Potency was inconclusive: 29.1 µM [falling, single point].

**Q.** Which lipid storage change, negative = inhibition does the source give for O=C(Nc1cccc(S(=O)(=O)N2CCCCC2)c1)C1CC(=O)N(Cc2ccco2)C1 (stereo not drawn) here?
**A.** The lipid storage change, negative = inhibition was inconclusive: -7.64%.
